Literature values as cited in patent US11260029B2, “Fish feed compositions containing a neonicotinoid for preventing and treating parasite infections” (priority 2014, dated 2022).

Conditions: in-feed 1, 5 or 10 mg/kg/day for 7 days; medium and higher concentrations; WO 2014/064184; cited from earlier work

SMILES	food uptake
C/C(=N\C#N)N(C)Cc1ccc(Cl)nc1 [acetamiprid]	reduced to an unacceptable level
CN/C(=N\[N+](=O)[O-])NCc1cnc(Cl)s1 [clothianidin]	not affecting the feed uptake
O=[N+]([O-])/N=C1\NCCN1Cc1ccc(Cl)nc1 [Imidacloprid, (2E)-1-((6-chloropyridin-3-yl)methyl)-N-nitroimidazolidin-2-imine]	reduced to an unacceptable level
